Source: patent US7528244
Results are given in words; binding and its absence hold for the method and conditions named. Some entries that bind do so weakly or less than the wild type.

Target: T1, Fas, P25445
T1 chain: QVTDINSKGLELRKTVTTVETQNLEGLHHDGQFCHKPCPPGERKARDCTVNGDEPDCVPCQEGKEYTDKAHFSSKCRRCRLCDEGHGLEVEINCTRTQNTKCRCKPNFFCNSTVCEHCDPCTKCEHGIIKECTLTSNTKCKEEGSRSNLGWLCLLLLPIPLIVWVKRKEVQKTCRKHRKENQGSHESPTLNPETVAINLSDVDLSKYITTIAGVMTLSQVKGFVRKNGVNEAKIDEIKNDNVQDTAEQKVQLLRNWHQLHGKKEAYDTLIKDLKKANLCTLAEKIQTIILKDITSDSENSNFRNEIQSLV
Assay: anti-Fas immunoprecipitation from 293 cells expressing Fas, FADD and Casper; three-protein complex
Details: remark: other sources report otherwise

B1: FADD, Q13158 1-208 (protein, UniProt Q13158 1-208, looked up)
chain: MDPFLVLLHSVSSSLSSSELTELKFLCLGRVGKRKLERVQSGLDLFSMLLEQNDLEPGHTELLRELLASLRRHDLLRRVDDFEAGAAAGAAPGEEDLCAAFNVICDNVGKDWRRLARQLKVSDTKIDSIEDRYPRNLTERVRESLRIWKNTEKENATVAHLVGALRSCQMNLVADLVQEVQQARDLQNRSGAMSPMSWNSDASTSEAS
- binding: binds
